Reference: PubChem BioAssay AID743121 (NCATS, 2013)
This is one part, drawn at random, of about 26,000 reagents tested. In the full data, 167 (0.63%) were called active. 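Calls are per gene from RSA p-values that are not deposited; an individual active-marked siRNA can sensitise only weakly.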 A number with no mark means an inactive call. Reagents against one gene are numbered here. Not all columns of the deposit are shown.

Purpose: 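Genes whose silencing strengthens cell killing by camptothecin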 (primary screen)
System: MDA-MB-231 cells, a human breast cancer line
Reagent: single siRNA against human genes, 20 nM siRNA (0.8 pmol per well)
Timing: 120 h (drug added 48 h after transfection, read 72 h later)
Treatment: camptothecin 20 nM (about EC30) for 72 h; vehicle 0.1% DMSO in parallel plates
Read-out: 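Cell viability by ATP luminescence (CellTiter-Glo) as % of non-targeting siRNA wells, and the log2 ratio of viability without drug over viability with camptothecin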
Reading the numbers: log2 vehicle/camptothecin viability: higher = stronger sensitisation to camptothecin
Call rule: 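Active genes have an RSA gene-level p-value below 0.001, computed from the ratios of their separate siRNAs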

{"gene symbol": "MASP1 (MBL associated serine protease 1)", "siRNA no.": 1, "log2 vehicle/camptothecin viability": -0.475}
{"gene symbol": "MASP1 (MBL associated serine protease 1)", "siRNA no.": 2, "log2 vehicle/camptothecin viability": -0.285}
{"gene symbol": "MASP1 (MBL associated serine protease 1)", "siRNA no.": 3, "log2 vehicle/camptothecin viability": -0.154}
{"gene symbol": "MASP1 (MBL associated serine protease 1)", "siRNA no.": 4, "log2 vehicle/camptothecin viability": -0.419}
{"gene symbol": "TMEM50B (transmembrane protein 50B)", "siRNA no.": 1, "log2 vehicle/camptothecin viability": -0.141}
{"gene symbol": "TMEM50B (transmembrane protein 50B)", "siRNA no.": 2, "log2 vehicle/camptothecin viability": 0.43}
{"gene symbol": "TMEM50B (transmembrane protein 50B)", "siRNA no.": 3, "log2 vehicle/camptothecin viability": -0.341}
{"gene symbol": "RDH13 (retinol dehydrogenase 13)", "siRNA no.": 1, "log2 vehicle/camptothecin viability": -0.113}
{"gene symbol": "RDH13 (retinol dehydrogenase 13)", "siRNA no.": 2, "log2 vehicle/camptothecin viability": -0.339}
{"gene symbol": "RDH13 (retinol dehydrogenase 13)", "siRNA no.": 3, "log2 vehicle/camptothecin viability": 0.0233}
{"gene symbol": "RDH13 (retinol dehydrogenase 13)", "siRNA no.": 4, "log2 vehicle/camptothecin viability": -0.0981}
{"gene symbol": "CCKAR (cholecystokinin A receptor)", "siRNA no.": 1, "log2 vehicle/camptothecin viability": -0.0617}
{"gene symbol": "CCKAR (cholecystokinin A receptor)", "siRNA no.": 2, "log2 vehicle/camptothecin viability": -0.126}
{"gene symbol": "CCKAR (cholecystokinin A receptor)", "siRNA no.": 3, "log2 vehicle/camptothecin viability": 0.261}
{"gene symbol": "CCKAR (cholecystokinin A receptor)", "siRNA no.": 4, "log2 vehicle/camptothecin viability": -0.256}
{"gene symbol": "PCK1 (phosphoenolpyruvate carboxykinase 1)", "siRNA no.": 1, "log2 vehicle/camptothecin viability": 0.232}
{"gene symbol": "PCK1 (phosphoenolpyruvate carboxykinase 1)", "siRNA no.": 2, "log2 vehicle/camptothecin viability": 0.425}
{"gene symbol": "PCK1 (phosphoenolpyruvate carboxykinase 1)", "siRNA no.": 3, "log2 vehicle/camptothecin viability": -0.277}
{"gene symbol": "PCK1 (phosphoenolpyruvate carboxykinase 1)", "siRNA no.": 4, "log2 vehicle/camptothecin viability": -0.0912}
{"gene symbol": "NEO1 (neogenin 1)", "siRNA no.": 1, "log2 vehicle/camptothecin viability": 0.125}
{"gene symbol": "NEO1 (neogenin 1)", "siRNA no.": 2, "log2 vehicle/camptothecin viability": 0.295}
{"gene symbol": "NEO1 (neogenin 1)", "siRNA no.": 3, "log2 vehicle/camptothecin viability": -0.0866}
{"gene symbol": "NEO1 (neogenin 1)", "siRNA no.": 4, "log2 vehicle/camptothecin viability": -0.0991}
{"gene symbol": "CYP26B1 (cytochrome P450 family 26 subfamily B member 1)", "siRNA no.": 1, "log2 vehicle/camptothecin viability": "0.634 (active)"}
{"gene symbol": "CYP26B1 (cytochrome P450 family 26 subfamily B member 1)", "siRNA no.": 2, "log2 vehicle/camptothecin viability": "-0.254 (active)"}
{"gene symbol": "CYP26B1 (cytochrome P450 family 26 subfamily B member 1)", "siRNA no.": 3, "log2 vehicle/camptothecin viability": "2.42 (active)"}
{"gene symbol": "CYP26B1 (cytochrome P450 family 26 subfamily B member 1)", "siRNA no.": 4, "log2 vehicle/camptothecin viability": "-0.0651 (active)"}
{"gene symbol": "HMG20B (high mobility group 20B)", "siRNA no.": 1, "log2 vehicle/camptothecin viability": 0.282}
{"gene symbol": "HMG20B (high mobility group 20B)", "siRNA no.": 2, "log2 vehicle/camptothecin viability": -0.27}
{"gene symbol": "HMG20B (high mobility group 20B)", "siRNA no.": 3, "log2 vehicle/camptothecin viability": 0.231}
{"gene symbol": "HMG20B (high mobility group 20B)", "siRNA no.": 4, "log2 vehicle/camptothecin viability": 0.916}
{"gene symbol": "UBC (ubiquitin C)", "siRNA no.": 1, "log2 vehicle/camptothecin viability": 0.165}
{"gene symbol": "UBC (ubiquitin C)", "siRNA no.": 2, "log2 vehicle/camptothecin viability": 0.146}
{"gene symbol": "UBC (ubiquitin C)", "siRNA no.": 3, "log2 vehicle/camptothecin viability": 0.588}
{"gene symbol": "PRKD3 (protein kinase D3)", "siRNA no.": 1, "log2 vehicle/camptothecin viability": -0.348}
{"gene symbol": "PRKD3 (protein kinase D3)", "siRNA no.": 2, "log2 vehicle/camptothecin viability": 0.318}
{"gene symbol": "PRKD3 (protein kinase D3)", "siRNA no.": 3, "log2 vehicle/camptothecin viability": 0.194}
{"gene symbol": "PRKD3 (protein kinase D3)", "siRNA no.": 4, "log2 vehicle/camptothecin viability": -0.0701}
{"gene symbol": "ADORA1 (adenosine A1 receptor)", "siRNA no.": 1, "log2 vehicle/camptothecin viability": -0.354}
{"gene symbol": "ADORA1 (adenosine A1 receptor)", "siRNA no.": 2, "log2 vehicle/camptothecin viability": 0.936}
{"gene symbol": "ADORA1 (adenosine A1 receptor)", "siRNA no.": 3, "log2 vehicle/camptothecin viability": -0.0257}
{"gene symbol": "ADORA1 (adenosine A1 receptor)", "siRNA no.": 4, "log2 vehicle/camptothecin viability": -0.338}
{"gene symbol": "CPXM2 (carboxypeptidase X, M14 family member 2)", "siRNA no.": 1, "log2 vehicle/camptothecin viability": -0.0731}
{"gene symbol": "CPXM2 (carboxypeptidase X, M14 family member 2)", "siRNA no.": 2, "log2 vehicle/camptothecin viability": -0.24}
{"gene symbol": "CPXM2 (carboxypeptidase X, M14 family member 2)", "siRNA no.": 3, "log2 vehicle/camptothecin viability": -0.0194}
{"gene symbol": "CPXM2 (carboxypeptidase X, M14 family member 2)", "siRNA no.": 4, "log2 vehicle/camptothecin viability": -0.0147}

Ordered by “log2 vehicle/camptothecin viability” (lowest first): 7 of the entries above
{"gene symbol": "HMG20B (high mobility group 20B)", "siRNA no.": 2, "log2 vehicle/camptothecin viability": -0.27}
{"gene symbol": "CYP26B1 (cytochrome P450 family 26 subfamily B member 1)", "siRNA no.": 2, "log2 vehicle/camptothecin viability": "-0.254 (active)"}
{"gene symbol": "CYP26B1 (cytochrome P450 family 26 subfamily B member 1)", "siRNA no.": 4, "log2 vehicle/camptothecin viability": "-0.0651 (active)"}
{"gene symbol": "HMG20B (high mobility group 20B)", "siRNA no.": 3, "log2 vehicle/camptothecin viability": 0.231}
{"gene symbol": "HMG20B (high mobility group 20B)", "siRNA no.": 1, "log2 vehicle/camptothecin viability": 0.282}
{"gene symbol": "CYP26B1 (cytochrome P450 family 26 subfamily B member 1)", "siRNA no.": 1, "log2 vehicle/camptothecin viability": "0.634 (active)"}
{"gene symbol": "CYP26B1 (cytochrome P450 family 26 subfamily B member 1)", "siRNA no.": 3, "log2 vehicle/camptothecin viability": "2.42 (active)"}
